Assay results: US20240417439A1, “RECOMBINANT POLYPEPTIDE FOR DISRUPTING INTERACTION OF EAG2 AND KVß2 AND THERAPEUTIC APPLICATIONS THEREOF IN CANCER TREATMENT” (The Hospital for Sick Children, priority 2021, published 2024)
Not every detail of the peptide structures is certain; ends, links or a residue may be inferred. No end group written: not given here.

How the values were obtained:
[1] = test system: human fetal neural progenitor cells (hf6562, hf7450); experiment: viability of human fetal neural progenitor cells after peptide treatment; format: cell-based; details: concentrations that reduce GBM cell viability
[2] = test system: GBM (G411) orthotopic xenograft; experiment: orthotopic GBM xenograft, cannula-mediated intratumoral peptide delivery; format: in vivo, mice
[3] = test system: therapy-resistant GBM cells; experiment: planned: treatment-refractory (TMZ and radiation) GBM cells in vitro; format: cell-based, human; details: expected, recurrent GBM in vivo
[4] = test system: GBM cells G432-IDH^WT, G432-IDH^mut, G607, G809r; experiment: growth/viability of GBM cells with wild type or mutant IDH; format: cell-based, human
EAG2-Kvß2 interaction = biological target: T1, EAG2-Kvß2 interaction (Homo sapiens, UniProt Q8NCM2); experiment: co-immunoprecipitation of endogenous EAG2 and Kvß2 in GBM cells after peptide treatment; format: cell-based; details: 4-hour treatment
T1 construct: endogenous in cells
T1 sequence (Q8NCM2 1-988): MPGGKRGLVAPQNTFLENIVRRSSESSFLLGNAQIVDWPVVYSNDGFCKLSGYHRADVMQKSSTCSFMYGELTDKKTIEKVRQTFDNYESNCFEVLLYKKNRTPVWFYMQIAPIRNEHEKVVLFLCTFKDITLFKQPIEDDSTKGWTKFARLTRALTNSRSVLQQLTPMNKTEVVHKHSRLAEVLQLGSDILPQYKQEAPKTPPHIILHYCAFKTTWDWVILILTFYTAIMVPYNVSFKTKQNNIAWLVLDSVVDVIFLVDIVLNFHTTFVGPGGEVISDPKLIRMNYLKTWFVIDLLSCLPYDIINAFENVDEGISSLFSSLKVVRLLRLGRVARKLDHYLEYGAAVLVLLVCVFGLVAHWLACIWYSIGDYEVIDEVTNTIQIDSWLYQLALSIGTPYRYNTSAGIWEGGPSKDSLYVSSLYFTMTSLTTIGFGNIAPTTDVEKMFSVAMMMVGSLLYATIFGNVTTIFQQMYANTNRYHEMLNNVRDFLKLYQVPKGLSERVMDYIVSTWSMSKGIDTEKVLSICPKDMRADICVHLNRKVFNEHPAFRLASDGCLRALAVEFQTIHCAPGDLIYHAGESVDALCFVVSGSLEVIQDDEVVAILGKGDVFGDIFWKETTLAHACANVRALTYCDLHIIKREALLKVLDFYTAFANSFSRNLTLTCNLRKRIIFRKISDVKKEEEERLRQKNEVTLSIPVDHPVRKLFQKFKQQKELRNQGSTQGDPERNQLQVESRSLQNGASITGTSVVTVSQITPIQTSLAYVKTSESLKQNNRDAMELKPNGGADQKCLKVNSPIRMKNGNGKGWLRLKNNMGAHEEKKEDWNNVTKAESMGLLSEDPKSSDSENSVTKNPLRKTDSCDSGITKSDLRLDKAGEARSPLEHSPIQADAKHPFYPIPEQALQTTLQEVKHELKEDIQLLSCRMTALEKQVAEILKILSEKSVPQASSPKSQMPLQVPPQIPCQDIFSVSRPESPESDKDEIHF

EAG2 = biological target: T2, EAG2 (Homo sapiens, UniProt Q8NCM2); experiment: EAG2 protein level in GBM cells after peptide treatment; format: cell-based; details: 8-hour or 16-hour treatment
T2 construct: decreases EAG2 protein level in GBM cells; endogenous in cells
T2 sequence (Q8NCM2 1-988): T1 sequence (Q8NCM2 1-988)

[5] = test system: post-therapy recurrent GBM; experiment: planned: post-therapy recurrent GBM in mice; format: in vivo; details: expected

## GRKKRRQRRRPQGSGSGSYAAGKAEVVLGNIIKKKGWRRSSLV [K90-114^TAT]
[1]
  impact on human fetal neural progenitor cells: did not impact
[2]; G411, intratumoral delivery
  survival of tumor-bearing mice: extended the survival
[2]; in vivo
  mitosis/proliferation of GBM cells in xenograft tumors: decreased mitosis
[3]
  cell death: induces cell death
  proliferation: reduces proliferation
[4]
  growth/viability of GBM cells with engineered wild type or mutant IDH or spontaneous IDH mutation: suppressed the growth
EAG2-Kvß2 interaction
  interaction between endogenous EAG2 and Kvß2: reduced the interaction
EAG2
  EAG2 protein level: decreased EAG2 protein level
[5]
  growth of recurrent GBM: may suppress the growth
  mouse survival: extend mouse survival
